PubChem BioAssay AID1471 (National Center for Advancing Translational Sciences (NCATS), 2008)
Screen size: about 230,000 compounds; about 310 (0.13%) were called active. Inconclusive results, whose numbers are uncertain, are shown with a selection of clear calls. The call rests on the fitted dose curve; in most records, active means well fitted activation curve with a large enough effect; inconclusive means small, poorly fitted or top-dose-only effect; inactive means no such curve, though single readings can be large or run the other way. A potency beside an inconclusive call is a rough fit, not a confirmed value.

Assay: qHTS Multiplex Assay to Identify Dual Action Probes in a Cell Model of Huntington: Cytoprotection (ATP); further: nearly all actives have a fitted effect of over 45% in size;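 on cytoprotection (ATP increase): toxic huntingtin expression switched on by the ecdysone agonist tebufenozide; % of control where 0% means no effect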
Conditions: PC12 HTT-Q103 induced, ATP luminescence, 40 h; cytoprotection (ATP increase): at 56.4 µM (top of the series) unless noted
In short: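 ATP quantification (ATPlite) reports survival of PC12 cells in which tebufenozide, 100 nM final, switches on Htt exon 1 with 103 glutamines linked to GFP; compounds are titrated.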
Potency means the concentration at half of the fitted maximal effect.

Compound | cytoprotection (ATP increase) | Potency
O=C(C1=C(O)C(=O)N(c2ncccn2)C1c1ccc(Cl)c(Cl)c1)c1ccco1 (centres undefined) | inactive: 3.57% | –
c1ccc(-c2cn3c(n2)CCc2ccc4cccnc4c2-3)cc1 | – | inconclusive: 0.112 µM [activator, partial curve, poor fit]
CCCC(=O)Nc1ccc(-c2cnc(-c3ccc(NC(=O)CCC)cc3)nc2)cc1 | – | inconclusive: 1 µM [activator, single point]
COc1ccc2sc(C)[n+](C)c2c1 | – | active: 11.2 µM
O=S(=O)(CCC(F)=C(F)F)c1nnnn1C1CCCCC1 | – | active: 3.98 µM
Cc1nonc1NC(=O)Nc1cccnc1 | – | inconclusive: 22.4 µM [activator, single point]
C=C/C1=C/Cc2ccccc2[C@H](C[N+](=O)[O-])C(C(=O)OC)(C(=O)OC)C1 | – | inconclusive: 11.2 µM [activator, partial curve]
Cc1cc([N+](=O)[O-])nn1CC(=O)Nc1ccc(Cl)cn1 | – | inconclusive: 0.501 µM [activator, full curve, poor fit]
CCOc1ccc(/C=N/NC(=S)NC2CC3C=CC2C3)cc1 (centres undefined) | inactive: 29.3% [at 10 µM] | –
O=C(Nc1nc(-c2cc(Cl)sc2Cl)cs1)c1ccccc1 | – | inconclusive: 0.112 µM [activator, full curve, poor fit]
CCCCN(C(=O)CSc1nncn1-c1ccccc1OC)c1c(N)n(Cc2ccccc2)c(=O)[nH]c1=O | inactive: -1.01% | –
CCOC(=O)c1ccc(NC(=O)C2CCN(C(=O)c3ccc(OC)c(OC)c3)CC2)cc1 | – | inconclusive: 3.55 µM [activator, single point]
CCOc1ccc(/C=C/c2c([N+](=O)[O-])c(=O)n(C)c(=O)n2C)cc1 | – | active: 7.94 µM
COC(=O)[C@@]1(Cc2ccc(OC)cc2)[C@H]2c3cc(C(=O)N4CCCC4)n(CCF)c3C[C@H]2CN1C(=O)c1ccccc1 | – | inconclusive: 10 µM [activator, single point]
CCOc1cc(C=O)ccc1OCCSc1ccc(Cl)cc1 | – | inconclusive: 0.355 µM [activator, partial curve, poor fit]
COc1ccc(/C=N/NC(=O)c2snnc2C)c(OC)c1OC | inactive: -19.3% | –
CC(C)[C@H](NC(N)=O)C(=O)NCCc1ccc(Cl)cc1Cl | – | inconclusive: 1.12 µM [activator, single point]
CC1CCC2=C1C[C@H](C(C)(C)O)CC[C@@H]2C (some centres undefined) | – | inconclusive: 5.62 µM [activator, single point]
Cc1ccccc1N=C(N)Nc1ccccc1C | – | inconclusive: 15.8 µM [activator, full curve]

Single entries from the results shown.
Cc1cc([N+](=O)[O-])nn1CC(=O)Nc1ccc(Cl)cn1 – Potency: inconclusive: 0.501 µM [activator, full curve, poor fit]
CCCC(=O)Nc1ccc(-c2cnc(-c3ccc(NC(=O)CCC)cc3)nc2)cc1 – Potency: inconclusive: 1 µM [activator, single point]
